{"source": "the GenesisPotency data set", "note": "Out of some 73,000 compounds screened, about 1,800 (2.5%) were called active. Roughly 13% stayed inconclusive and do not appear here. The call rests on the fitted dose curve; in most records, active means well fitted activation curve with a large enough effect; inconclusive means small, poorly fitted or top-dose-only effect; inactive means no such curve, though single readings can be large or run the other way. Some of the results follow."}
{"assay": "qHTS Assay for Agonists of the Thyroid Stimulating Hormone Receptor: Activators of Intracellular cAMP Concentrations in Parental HEK 293"}
{"smiles": "[Na+].[O-][Br+2]([O-])[O-]", "outcome": "inactive"}
